According to patent US9856511B2, “Protease deubiquitinating inhibitor screening” (priority 2011, dated 2018):
Values joined by “and” are separate entries in the source; they are usually repeats but may differ in a detail not shown here. Equal entries are not always repeated.

system: MCF7 cells; test: Connectivity Map (CMAP) comparison of the b-AP15 gene expression signature; details: MCF7 cells treated with b-AP15 1 μM for 6 h

| SMILES | CMAP Score (similarity to the b-AP15 expression signature) |
| --- | --- |
| CCCCC/C=C/C=C1/C(=O)C=C[C@@H]1C/C=C\CCCC(=O)O [15 Δ prostaglandin J2] | 0.999 and 0.940 |
| CC(C)C[C@H](NC(=O)[C@H](CC(C)C)NC(=O)[C@H](CC(C)C)NC(=O)OCc1ccccc1)B(O)O [MG-262] | 1 |
| CC1=C(CO)C(=O)O[C@@H]([C@@H](C)[C@H]2CC[C@H]3[C@@H]4C[C@H]5O[C@]56[C@@H](O)C=CC(=O)[C@]6(C)[C@H]4CC[C@]23C)C1 [Withaferin A] | 0.922 |
